Assay results published in patent US20220267422A1.
These are yes or no findings as the source states them, for the method shown. Some binding calls cover weakened binding; strength is not graded here.

The chains behind the UniProt entries cited, without tags or fusion partners. Residues count along the entry.
UniProt Q9UKY0, residues 26-152: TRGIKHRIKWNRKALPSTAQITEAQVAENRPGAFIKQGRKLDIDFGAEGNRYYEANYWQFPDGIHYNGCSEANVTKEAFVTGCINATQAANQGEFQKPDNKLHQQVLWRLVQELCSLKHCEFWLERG

Target: human doppel on human tumor endothelial cells (human) (UniProt Q9UKY0)
Experiment: flow cytometry on HCTEC (human colonic tumor endothelial cells), fluorescent secondary antibody; no control bar and no antibody concentration shown

B1: Human monoclonal antibody E9 (antibody, human IgG1, kappa, V domains shown)
VH: QVQLVQSGAEVKKPGSSVKVSCKASGGTFSSYYMHWVRQAPGQGLEWMGRISPGGGGTIYAQKFQGRVTITADESTSTAYMELSSLRSEDTAVYYCARAQSEGLSYYFDVWGQGTLVTVSS
VL: DIQMTQSPSSLSASVGDRVTITCRASQSIRNYLNWYQQKPGKAPKLLIYAASNLQSGVPSRFSGSGSGTDFTLTISSLQPEDFATYYCQQSSSFPLTFGQGTKVEIKR
  binding: binds
